{"source": "patent US4595757A", "about": "“N-alkylated benzo- and hetero-fused antisecretory agents” (American Home Products Corporation, priority 1984, dated 1986)", "origin": "cited, not measured here", "tested_on": "(H^+ +K^+)ATPase", "conditions": "Fellenius, Nature 220, 159-160 (1981); cited from earlier work", "data": [{"molecule": "CN1[C@@H]2CC[C@H]1C[C@@H](OC(=O)C(CO)c1ccccc1)C2", "note": "(stereo partly shown) [atropine]", "values": [{"measurement": "inhibition of proton transport by inhibition of (H^+ +K^+)ATPase", "value": "devoid of this activity"}]}]}
